We go through 2 molecules from paper PMC10944510.

These are yes or no findings as the source states them, for the method shown. In cells and extracts the contact can be indirect. Some binding calls cover weakened binding; strength is not graded here. Sequences can lack the tags named with a protein.

The target of one test is T1, FLAG-tagged Nek2A (UniProt P51955).
T1 sequence: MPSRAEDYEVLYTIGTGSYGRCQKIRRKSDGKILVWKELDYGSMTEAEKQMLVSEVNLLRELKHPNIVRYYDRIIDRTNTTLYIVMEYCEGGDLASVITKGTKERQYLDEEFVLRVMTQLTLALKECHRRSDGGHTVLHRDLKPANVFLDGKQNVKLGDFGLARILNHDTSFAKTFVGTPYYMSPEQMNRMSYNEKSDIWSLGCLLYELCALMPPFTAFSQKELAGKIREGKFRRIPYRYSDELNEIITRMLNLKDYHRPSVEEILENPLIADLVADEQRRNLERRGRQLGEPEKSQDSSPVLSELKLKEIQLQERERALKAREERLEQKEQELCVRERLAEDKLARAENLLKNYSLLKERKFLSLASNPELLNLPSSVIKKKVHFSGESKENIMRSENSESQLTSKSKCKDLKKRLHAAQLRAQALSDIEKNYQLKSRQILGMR
Briefly: co-IP; U2OS cells with ectopically expressed FLAG-tagged Nek2A; cells crosslinked with 0.1% paraformaldehyde for 7 min, lysed in IP buffer; anti-FLAG or anti-KIF2C antibody or IgG control, protein G magnetic beads, 4 °C; Western blot.

The target of test [1] is T2, KIF2C (human (endogenous in U2OS)) (UniProt Q99661).
T2 sequence: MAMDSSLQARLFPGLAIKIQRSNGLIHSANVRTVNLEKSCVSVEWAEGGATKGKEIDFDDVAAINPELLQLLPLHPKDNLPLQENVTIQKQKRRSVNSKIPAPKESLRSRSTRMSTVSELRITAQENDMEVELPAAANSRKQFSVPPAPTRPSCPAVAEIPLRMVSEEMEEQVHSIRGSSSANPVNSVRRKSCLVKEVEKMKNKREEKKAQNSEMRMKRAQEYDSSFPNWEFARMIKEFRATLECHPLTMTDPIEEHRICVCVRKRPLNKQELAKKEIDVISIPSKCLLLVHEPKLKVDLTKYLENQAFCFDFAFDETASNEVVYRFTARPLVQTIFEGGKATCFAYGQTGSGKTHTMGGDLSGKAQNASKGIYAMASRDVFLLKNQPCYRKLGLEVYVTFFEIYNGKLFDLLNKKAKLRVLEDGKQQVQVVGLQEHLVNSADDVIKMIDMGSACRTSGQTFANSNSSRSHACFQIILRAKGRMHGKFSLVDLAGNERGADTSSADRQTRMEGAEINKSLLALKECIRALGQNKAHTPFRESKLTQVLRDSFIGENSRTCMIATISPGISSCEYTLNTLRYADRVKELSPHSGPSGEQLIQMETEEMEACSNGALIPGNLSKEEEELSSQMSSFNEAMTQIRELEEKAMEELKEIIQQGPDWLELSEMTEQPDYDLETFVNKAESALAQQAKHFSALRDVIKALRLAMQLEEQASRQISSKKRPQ
Described as above.

B1: KIF2C (protein, UniProt Q99661 1-725)
chain: T2 sequence
Take B1: in the test with FLAG-tagged Nek2A, the binding result was “binds”.

B2: FLAG-tagged Nek2A (enzyme, UniProt P51955 1-445)
chain: T1 sequence
As for B2, the binding result in test [1] is on record as “binds”.
